We go through 1 molecule from patent US4267189A, “Method of use and composition for 1,3-dihydro-3-(2-hydroxy-2-methylpropyl)-2H-isoindol-1-one” (American Home Products Corporation, priority 1979, dated 1981).

The subject of the assay is Gastric Acid Secretion. Kind of assay: Basal gastric acid secretion in the Shay (pylorus-ligated) rat. The class given is in vivo, rat (female Sprague Dawley). The conditions noted are these: for Gastric Acid Output: mean ± S.E.; for ED50: Rattus norvegicus, gastric acid secretion. As to the method:
Female Sprague Dawley rats (Canadian Breeding Laboratories; 160-180 g) were fasted for 48 hours before pyloric ligation. After the first 24 hours of fasting the animals were given access to 8% sucrose in 0.2% sodium chloride for 8 hours. Water was permitted ad libitum except during the 8 hour access to sucrose and after the drug treatment. The compounds were suspended in water with the aid of one drop of Tween 80 per 7 ml for oral or intraperitoneal administration. The pylorus was ligated under ether anesthesia and the sutured incision was covered with flexible collodion to prevent the animals from ingesting adhering blood. The stomachs were lavaged with 0.9% sodium chloride until the return solution was clear. Four hours after pyloric ligation, the animals were killed with diethyl ether and the gastric contents were collected in centrifuge tubes. The amount of acid in the centrifuged gastric juice was determined by titration against 0.1 N sodium hydroxide in a direct reading pH meter of pH 7.0.
Student's t test was used in the evaluation of the data. The ED50 's were obtained graphically by plotting the percent inhibition of gastric acid secretion versus the logarithm of the dose of the compound.

For the molecule `CN1[C@@H]2CC[C@H]1C[C@@H](OC(=O)C(CO)c1ccccc1)C2` (some centres unmarked) [Atropine, reference compound], the “Gastric Acid Output (% Inhibition)” value (0.25 mg/kg i.p.) is on record as 49 % Inhibition; the “Gastric Acid Output (% Inhibition)” value (0.5 mg/kg i.p.) is recorded as 50 % Inhibition; the “Gastric Acid Output (% Inhibition)” value (1 mg/kg i.p.) was determined as 67 % Inhibition; the “Gastric Acid Output (% Inhibition)” value (2 mg/kg p.o.) is reported as 0 % Inhibition; the “Gastric Acid Output (% Inhibition)” value (4 mg/kg p.o.) is on record as 33 % Inhibition; the “Gastric Acid Output (% Inhibition)” value (8 mg/kg p.o.) is 57 % Inhibition. Moreover, the “Gastric Acid Output” value reads like this: (0.25 mg/kg i.p.) 278 ± 38 μEg/4 hr; (0.5 mg/kg i.p.) 270 ± 37 μEg/4 hr; (1 mg/kg i.p.) 182 ± 48 μEg/4 hr; (2 mg/kg p.o.) 436 ± 77 μEq/4 hr; (4 mg/kg p.o.) 290 ± 60 μEq/4 hr; (8 mg/kg p.o.) 186 ± 53 μEq/4 hr. Also, the ED50 is 0.5 mg/kg (ip, intraperitoneal administration) and 7 mg/kg (oral administration).

As a reminder, the ED50 is the midpoint of the dose-response relation. A lower ED50 goes with greater potency.
